Laboratory results from article PMC7465447.
These are yes or no findings as the source states them, for the method shown. Some entries that bind do so weakly or less than the wild type.

Protein sequences, listed by entry. Tags and fused reporters are not part of them. Lines headed by an entry give the natural chain unless they say otherwise; changes in a name come on top.
UniProt A0A125YZN2: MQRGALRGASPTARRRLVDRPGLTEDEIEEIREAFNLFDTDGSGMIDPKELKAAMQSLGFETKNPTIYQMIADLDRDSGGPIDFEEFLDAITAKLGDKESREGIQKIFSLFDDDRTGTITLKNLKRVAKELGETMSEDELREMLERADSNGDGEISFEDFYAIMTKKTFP
UniProt A0A125YHX7: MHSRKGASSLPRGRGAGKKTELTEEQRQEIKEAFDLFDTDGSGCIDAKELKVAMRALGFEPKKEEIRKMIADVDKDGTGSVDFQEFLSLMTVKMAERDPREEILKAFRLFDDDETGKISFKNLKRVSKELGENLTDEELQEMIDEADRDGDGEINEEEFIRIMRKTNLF

Key:
[1] = target: full-length TgCEN2 (Toxoplasma gondii centrin 2) (Toxoplasma gondii); assay: turbidity (absorbance at 340 nm); 20 μM protein, no Ca2+ (1 mM EGTA), 20 mM Tris-HCl, 20 mM KCl pH 7.5 (0.5 mM DTT for TgCEN1), 37 °C, against time; both purified
[2] = target: full-length TgCEN2 (Toxoplasma gondii centrin 2) (Toxoplasma gondii); assay: turbidity (absorbance at 340 nm); 20 μM protein, 1 mM Ca2+, 20 mM Tris-HCl, 20 mM KCl pH 7.5 (0.5 mM DTT for TgCEN1), 37 °C, against time; both purified
[3] = target: TgCEN1-C (TgCEN1 lacking the first 21 residues, residues 22-169) (Toxoplasma gondii); assay: turbidity (absorbance at 340 nm); 20 μM protein, no Ca2+ (1 mM EGTA), 20 mM Tris-HCl, 20 mM KCl pH 7.5 (0.5 mM DTT for TgCEN1), 37 °C, against time; both purified
[4] = target: TgCEN1-C (TgCEN1 lacking the first 21 residues, residues 22-169) (Toxoplasma gondii); assay: turbidity (absorbance at 340 nm); 20 μM protein, 1 mM Ca2+, 20 mM Tris-HCl, 20 mM KCl pH 7.5 (0.5 mM DTT for TgCEN1), 37 °C, against time; both purified
[5] = target: TgCEN1-C (TgCEN1 lacking the first 21 residues, residues 22-169) (Toxoplasma gondii); assay: dynamic light scattering; 10 μM protein, 37 °C, before and after 1 mM CaCl2, high ionic strength as in the ANS experiments (50 mM Tris-HCl, 150 mM KCl pH 7.5); mean count rate followed (Figure S6B); both purified
[6] = target: TgCEN1-C (TgCEN1 lacking the first 21 residues, residues 22-169) (Toxoplasma gondii); assay: SEC; Superdex 75 Increase 10/300 GL, 2 mg/mL protein, 50 mM Tris-HCl, 150 mM KCl pH 7.5, with 5 mM EGTA (apo-form); both purified
[7] = target: TgCEN1-C (TgCEN1 lacking the first 21 residues, residues 22-169) (Toxoplasma gondii); assay: native gel or EMSA; native PAGE (12%) after 30 min at 25 °C with 2 mM CaCl2 or 2 mM EGTA; apo- and Ca2+-bound protein; both purified
[8] = target: TgCEN2-C (TgCEN2 lacking the first 22 amino acids, residues 23-170) (Toxoplasma gondii); assay: turbidity (absorbance at 340 nm); 20 μM protein, no Ca2+ (1 mM EGTA), 20 mM Tris-HCl, 20 mM KCl pH 7.5 (0.5 mM DTT for TgCEN1), 37 °C, against time; both purified
[9] = target: TgCEN2-C (TgCEN2 lacking the first 22 amino acids, residues 23-170) (Toxoplasma gondii); assay: turbidity (absorbance at 340 nm); 20 μM protein, 1 mM Ca2+, 20 mM Tris-HCl, 20 mM KCl pH 7.5 (0.5 mM DTT for TgCEN1), 37 °C, against time; both purified
[10] = target: TgCEN2-C (TgCEN2 lacking the first 22 amino acids, residues 23-170) (Toxoplasma gondii); assay: dynamic light scattering; 10 μM protein, 37 °C, before and after 1 mM CaCl2, high ionic strength as in the ANS experiments (50 mM Tris-HCl, 150 mM KCl pH 7.5); mean count rate followed (Figure S6B); both purified
[11] = target: TgCEN2-C (TgCEN2 lacking the first 22 amino acids, residues 23-170) (Toxoplasma gondii); assay: SEC; Superdex 75 Increase 10/300 GL, 2 mg/mL protein, 50 mM Tris-HCl, 150 mM KCl pH 7.5, with 5 mM EGTA (apo-form); both purified
[12] = target: TgCEN2-C (TgCEN2 lacking the first 22 amino acids, residues 23-170) (Toxoplasma gondii); assay: native gel or EMSA; native PAGE (12%) after 30 min at 25 °C with 2 mM CaCl2 or 2 mM EGTA; apo- and Ca2+-bound protein; both purified
[13] = target: full-length TgCEN1 (Toxoplasma gondii centrin 1) (Toxoplasma gondii); assay: turbidity (absorbance at 340 nm); 20 μM protein, 1 mM Ca2+, 20 mM Tris-HCl, 20 mM KCl pH 7.5 (0.5 mM DTT for TgCEN1), 37 °C, against time; both purified

Substance: full-length TgCEN2 (Toxoplasma gondii centrin 2) (from UniProt A0A125YZN2 1-170)
- binding [1]: no binding (tested: 20 μM)
- binding [2]: no binding (tested: 20 μM)

Substance: TgCEN1-C (TgCEN1 lacking the first 21 residues, residues 22-169) (from UniProt A0A125YHX7 22-169) (domain or fragment)
- binding [3]: no binding (tested: 20 μM)
- binding [4]: no binding (tested: 20 μM)
- binding [5]: no binding (tested: 10 μM)
- binding [6]: no binding (tested: 2 mg/mL)
- binding [7]: no binding

Substance: TgCEN2-C (TgCEN2 lacking the first 22 amino acids, residues 23-170) (from UniProt A0A125YZN2 23-170) (domain or fragment)
- binding [8]: no binding (tested: 20 μM)
- binding [9]: no binding (tested: 20 μM)
- binding [10]: no binding (tested: 10 μM)
- binding [11]: no binding (tested: 2 mg/mL)
- binding [12]: no binding

Substance: full-length TgCEN1 (Toxoplasma gondii centrin 1) (from UniProt A0A125YHX7 1-169)
- binding [13]: binds
